Reference: PubChem BioAssay AID1259307 (Sanger Institute, 2017)
In all, the deposit lists 794 reagents; shown is a part drawn at random. 15 of all reagents (1.9%) count as active. 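Calls reflect lethality without any drug; synergy scores did not enter the calls.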 A number with no mark means an inactive call. Not all columns of the deposit are shown. Reagent sequences are not shown. The record does not give: the amount of reagent, the time to read-out.

Assay: 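siRNA kinome screen seeking kinases whose loss harms SW620 cells alone or with drugs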 (primary screen)
Cell system: SW620 colorectal cancer cells
Reagent: siRNA pool against human genes
Challenge: anchor drugs BYL719 at 1 µM, cetuximab at 5 µg/ml or trametinib at 10 nM, each beside a DMSO vehicle arm
Detection: 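Per-well viability versus non-targeting control pool, replicate-averaged, robust z-score from controls; synergy scores for BYL719 1 µM, cetuximab 5 µg/ml, trametinib 10 nM against DMSO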
Direction: viability robust z-score, no drug: higher = more viable cells
Active means: 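a knock-down counts as lethal alone if its drug-free robust viability z-score is lower than -3, regardless of synergy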
Calls: active = essential (lethal alone); inactive = no change alone

What did the screen give for PRKCZ?
viability robust z-score, no drug: 0.736

With POLR2B, what was measured?
viability robust z-score, no drug: -4.67 (active)

What is on record for RPS6KA3?
viability robust z-score, no drug: 0.736

With STK32A, what was measured?
viability robust z-score, no drug: 0.677

How did the screen score CDK13?
viability robust z-score, no drug: 0.736

With BMPR2, what was measured?
viability robust z-score, no drug: 0.567

Which result is listed for STK24?
viability robust z-score, no drug: 0.736

Which result is listed for PDK1?
viability robust z-score, no drug: 0.542

How did the screen score PRKAG1?
viability robust z-score, no drug: -0.105

With UCKL1, how do the results read?
viability robust z-score, no drug: 0.736

For LMTK2, what was measured?
viability robust z-score, no drug: 0.433

What is on record for BUB1B?
viability robust z-score, no drug: -1.91

With CDK5, what was measured?
viability robust z-score, no drug: 0.736

For AK5, how do the results read?
viability robust z-score, no drug: -0.816

Which result is listed for ATRX?
viability robust z-score, no drug: 0.736

What is on record for SRP72?
viability robust z-score, no drug: 0.146

Entries listed so far whose gene name starts with P or p (4):
PRKCZ | viability robust z-score, no drug: 0.736
POLR2B | viability robust z-score, no drug: -4.67 (active)
PDK1 | viability robust z-score, no drug: 0.542
PRKAG1 | viability robust z-score, no drug: -0.105

Next records follow.
With NME3, what does the deposit list?
viability robust z-score, no drug: 0.33

Which result is listed for ACVR1B?
viability robust z-score, no drug: 0.736

For CAMKK1, what does the deposit list?
viability robust z-score, no drug: 0.736

What did the screen give for CAMK1?
viability robust z-score, no drug: 0.736

With EPHB6, how do the results read?
viability robust z-score, no drug: 0.243

For PFKFB4, what does the deposit list?
viability robust z-score, no drug: 0.736

What is on record for IGF2R?
viability robust z-score, no drug: 0.736

With ACSL6, how do the results read?
viability robust z-score, no drug: 0.736

For FBXW7, what was measured?
viability robust z-score, no drug: 0.226

Which result is listed for CSNK1A1?
viability robust z-score, no drug: -0.746

For LTK, how do the results read?
viability robust z-score, no drug: -1.03

With SHPK, how do the results read?
viability robust z-score, no drug: -0.566
